Drawing on article PMC11054660, this text covers binding for three molecules.

These are yes or no findings as the source states them, for the method shown. Binding seen in cells or lysates may run through a third protein. These calls come from enrichment with a bait or labelling near it, and not all partners need be listed. Tags and fused reporters may be left off the sequences shown.

In assay [1] the target is T1, gp27-N-His built into modified T4 amber27 phage particles (bacteriophage T4) (UniProt P17172).
T1 sequence: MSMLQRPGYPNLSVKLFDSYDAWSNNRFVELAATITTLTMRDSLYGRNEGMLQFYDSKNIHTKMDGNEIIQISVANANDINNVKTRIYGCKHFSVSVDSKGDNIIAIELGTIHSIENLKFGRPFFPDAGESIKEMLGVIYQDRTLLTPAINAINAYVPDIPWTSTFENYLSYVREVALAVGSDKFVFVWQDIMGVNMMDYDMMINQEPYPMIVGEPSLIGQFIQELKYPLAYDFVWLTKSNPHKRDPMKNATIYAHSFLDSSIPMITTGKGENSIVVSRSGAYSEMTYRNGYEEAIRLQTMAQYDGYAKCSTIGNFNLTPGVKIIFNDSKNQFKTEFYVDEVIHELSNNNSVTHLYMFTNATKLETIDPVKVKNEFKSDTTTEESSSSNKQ
Description: cross-linking + affinity purification with mass spectrometry; E. coli C3022 cells infected with CsCl-purified T4 amber27 phages carrying gp27-N-His (m.o.i. 2), 0.44% paraformaldehyde, 10 min, 37 °C; lysis with 1% Triton-X-100 and 2.5 M urea; nickel affinity chromatography, SDS-PAGE, MALDI of the 75, 100 and 150 kDa bands.

In assay [2] the target is T2, T4 gp27 with an N-terminal 10xHis-tag (gp27-N), purified (bacteriophage T4) (UniProt P17172).
T2 sequence: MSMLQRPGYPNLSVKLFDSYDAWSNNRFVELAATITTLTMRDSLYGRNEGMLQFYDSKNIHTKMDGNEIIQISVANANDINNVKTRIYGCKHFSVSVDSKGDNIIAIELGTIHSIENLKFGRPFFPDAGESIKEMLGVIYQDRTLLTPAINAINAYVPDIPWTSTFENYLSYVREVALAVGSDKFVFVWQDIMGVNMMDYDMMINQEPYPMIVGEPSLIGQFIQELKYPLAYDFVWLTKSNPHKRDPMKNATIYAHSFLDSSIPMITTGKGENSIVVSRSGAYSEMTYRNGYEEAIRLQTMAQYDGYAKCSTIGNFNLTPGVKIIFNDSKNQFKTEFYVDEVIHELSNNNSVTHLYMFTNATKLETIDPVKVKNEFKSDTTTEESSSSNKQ
Description: cross-linking + affinity purification with mass spectrometry; purified gp27-N added to E. coli C3022 spheroplasts, 0.44% paraformaldehyde, RT, 20 min; lysis with 1% Triton-X-100; TALON Superflow (nickel) affinity chromatography, SDS-PAGE, MALDI of the 75 kDa and 150 kDa bands; only the target purified.

B1: cell division protein DamX, endogenous in E. coli (protein, UniProt P11557 1-428)
chain: MDEFKPEDELKPDPSDRRTGRSRQSSERSERTERGEPQINFDDIELDDTDDRRPTRAQKERNEEPEIEEEIDESEDETVDEERVERRPRKRKKAASKPASRQYMMMGVGILVLLLLIIGIGSALKAPSTTSSDQTASGEKSIDLAGNATDQANGVQPAPGTTSAENTQQDVSLPPISSTPTQGQTPVATDGQQRVEVQGDLNNALTQPQNQQQLNNVAVNSTLPTEPATVAPVRNGNASRDTAKTQTAERPSTTRPARQQAVIEPKKPQATVKTEPKPVAQTPKRTEPAAPVASTKAPAATSTPAPKETATTAPVQTASPAQTTATPAAGAKTAGNVGSLKSAPSSHYTLQLSSSSNYDNLNGWAKKENLKNYVVYETTRNGQPWYVLVSGVYASKEEAKKAVSTLPADVQAKNPWAKPLRQVQADLK
With B1, the binding entry in assay [1] and in assay [2] was “binds” throughout.

B2: succinate dehydrogenase SdhA, endogenous in E. coli (protein, UniProt P0AC41 1-588)
chain: MKLPVREFDAVVIGAGGAGMRAALQISQSGQTCALLSKVFPTRSHTVSAQGGITVALGNTHEDNWEWHMYDTVKGSDYIGDQDAIEYMCKTGPEAILELEHMGLPFSRLDDGRIYQRPFGGQSKNFGGEQAARTAAAADRTGHALLHTLYQQNLKNHTTIFSEWYALDLVKNQDGAVVGCTALCIETGEVVYFKARATVLATGGAGRIYQSTTNAHINTGDGVGMAIRAGVPVQDMEMWQFHPTGIAGAGVLVTEGCRGEGGYLLNKHGERFMERYAPNAKDLAGRDVVARSIMIEIREGRGCDGPWGPHAKLKLDHLGKEVLESRLPGILELSRTFAHVDPVKEPIPVIPTCHYMMGGIPTKVTGQALTVNEKGEDVVVPGLFAVGEIACVSVHGANRLGGNSLLDLVVFGRAAGLHLQESIAEQGALRDASESDVEASLDRLNRWNNNRNGEDPVAIRKALQECMQHNFSVFREGDAMAKGLEQLKVIRERLKNARLDDTSSEFNTQRVECLELDNLMETAYATAVSANFRTESRGAHSRFDFPDRDDENWLCHSLYLPESESMTRRSVNMEPKLRPAFPPKIRTY
For the molecule B2, the binding entry in assay [1] and in assay [2] was “binds” each time.

B3: periplasmic E. coli chaperon PpiD, endogenous in E. coli (protein, UniProt P0ADY1 1-623)
chain: MMDSLRTAANSLVLKIIFGIIIVSFILTGVSGYLIGGGNNYAAKVNDQEISRGQFENAFNSERNRMQQQLGDQYSELAANEGYMKTLRQQVLNRLIDEALLDQYARELKLGISDEQVKQAIFATPAFQVDGKFDNSRYNGILNQMGMTADQYAQALRNQLTTQQLINGVAGTDFMLKGETDELAALVAQQRVVREATIDVNALAAKQPVTEQEIASYYEQNKNNFMTPEQFRVSYIKLDAATMQQPVSDADIQSYYDQHQDQFTQPQRTRYSIIQTKTEDEAKAVLDELNKGGDFAALAKEKSADIISARNGGDMGWLEDATIPDELKNAGLKEKGQLSGVIKSSVGFLIVRLDDIQPAKVKSLDEVRDDIAAKVKHEKALDAYYALQQKVSDAASNDTESLAGAEQAAGVKATQTGWFSKDNLPEELNFKPVADAIFNGGLVGENGAPGINSDIITVDGDRAFVLRISEHKPEAVKPLADVQEQVKALVQHNKAEQQAKVDAEKLLVDLKAGKGAEAMQAAGLKFGEPKTLSRSGRDPISQAAFALPLPAKDKPSYGMATDMQGNVVLLALDEVKQGSMPEDQKKAMVQGITQNNAQIVFEALMSNLRKEAKIKIGDALEQQ
On to B3, for which the binding entry in assay [1] and in assay [2] was “binds” each time.
